Test results from PubChem BioAssay AID488837 (National Center for Advancing Translational Sciences (NCATS), 2010).
Out of some 330,000 compounds screened, about 20 (0.006%) were called active. The inconclusive results got no clear call from the source; some entries with a clear call stand among them for comparison. Calls follow the shape of the dose curve; as a rule, active = well fitted inhibition curve with a large enough effect; inconclusive = small, poorly fitted or top-dose-only effect, or effect the other way; inactive = flat fitted curve, though single readings scatter. Where the call is inconclusive, the potency comes from a doubtful curve fit.

The chains behind the UniProt entries cited, without tags or fusion partners. Where a name states a change or a piece, a line headed by the entry shows the natural chain unless it says otherwise.
UniProt O00167: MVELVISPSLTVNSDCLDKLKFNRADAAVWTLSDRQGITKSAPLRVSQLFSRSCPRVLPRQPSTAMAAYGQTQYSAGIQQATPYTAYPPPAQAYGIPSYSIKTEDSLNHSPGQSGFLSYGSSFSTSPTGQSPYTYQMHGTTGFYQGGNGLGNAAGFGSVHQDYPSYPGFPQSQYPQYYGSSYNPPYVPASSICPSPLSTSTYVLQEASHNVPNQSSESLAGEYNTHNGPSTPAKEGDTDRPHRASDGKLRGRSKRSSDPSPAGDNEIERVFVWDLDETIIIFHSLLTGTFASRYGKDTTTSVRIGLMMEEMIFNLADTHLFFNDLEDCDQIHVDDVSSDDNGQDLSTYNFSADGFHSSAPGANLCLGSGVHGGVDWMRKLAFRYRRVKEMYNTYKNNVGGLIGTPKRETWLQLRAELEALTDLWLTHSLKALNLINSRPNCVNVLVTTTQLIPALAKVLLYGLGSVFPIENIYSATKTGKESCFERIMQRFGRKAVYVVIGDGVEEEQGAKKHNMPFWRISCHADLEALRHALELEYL

Each compound was assayed against Protein phosphatase EYA2 (Homo sapiens) (UniProt O00167) (assay: qHTS Assay for Inhibitors of the Phosphatase Activity of Eya2). Conditions: recombinant Eya2, OMFP fluorescence dephosphorylation (OMFP is methylfluorescein phosphate).
Procedure, shortened: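 Eya2 (0.2 uM) preincubated 10 min at ambient with compound, then OMFP substrate added at 50 uM; 10 min reaction in 50 mM HEPES pH 7.5, 50 mM NaCl, 5 uM MgCl2, 0.05% BSA, 1 mM DTT. Fluorescence read at Ex 485/Em 525 nm.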
Potency is read from the fitted curve at half-maximal effect.

| Structure (SMILES) | Potency |
| --- | --- |
| Cc1cc(Nc2ccccc2)n2nc(C)c(-c3ccccc3)c2n1 | inactive |
| CC(=NNC(=O)c1ccc2nc[nH]c2c1)c1ccc(Br)cc1 | inconclusive: 100 µM [inhibitor, partial curve] |
| C[C@H]1O[C@@H](O[C@H]2[C@@H](O)C[C@H](O[C@H]3[C@@H](O)C[C@H](O[C@H]4CC[C@@]5(C)[C@H](CC[C@@H]6[C@@H]5C[C@@H](O)[C@]5(C)[C@@H](C7=CC(=O)OC7)CC[C@]65O)C4)O[C@@H]3C)O[C@@H]2C)C[C@H](O)[C@@H]1O | inactive |
| CCOc1ccc(-c2[nH]ncc2Oc2ccccc2OCC)c(O)c1 | inactive |
| Cn1c(=O)c2nc3ccccc3nc2n(C)c1=O | inactive |
| O=C(O)COc1ccc2oc3c(c2c1)CCCC3 | inconclusive: 158 µM [inhibitor, single point] |
| Cc1ccc2nc3c(cc2c1)c(NC(=O)C(C)(C)C)nn3CC(C)C | inconclusive: 224 µM [inhibitor, partial curve, poor fit] |
| Cc1ccc(Cn2ccsc2=NC(=O)CCl)cc1 | inactive |
| O=C(c1ccc(F)c(F)c1)N1CCCc2ccccc21 | inconclusive: 89.1 µM [inhibitor, partial curve, poor fit] |
| CCOC(=O)C1=C(C)N(C)C(=O)NC1c1ccccc1OC (stereo not given) | inconclusive: 70.8 µM [inhibitor, partial curve] |
| C=CCn1c(-c2ccco2)n[nH]c1=S | inconclusive: 56.2 µM [inhibitor, partial curve, poor fit] |
| Cc1ccc(C(=O)NCCCNC(=O)COc2ccc(Cl)c(C)c2)cn1 | inactive |
| CC(=O)Nc1ccc2nc(-c3ccco3)[nH]c2c1 | inconclusive: 112 µM [inhibitor, single point] |
| O=C(COC(=O)C1COc2ccccc2O1)Nc1ccccc1OC(F)F (stereo not given) | inconclusive: 22.4 µM [inhibitor, partial curve, poor fit] |
| O=C(Nc1cccnc1Cl)c1cc2ccccc2o1 | inconclusive: 31.6 µM [inhibitor, partial curve] |
| Cc1nn(-c2ccc(N3CCOCC3)nn2)c(C)c1CCC(=O)Nc1ccc(F)cc1 | inconclusive: 25.1 µM [inhibitor, single point] |
| CCC(C)[C@H](NC(=O)NCc1cccnc1)C(=O)OC (stereo not given in full) | inconclusive: 56.2 µM [inhibitor, partial curve] |
| COC(=O)c1ccc(Sc2ccccc2NS(=O)(=O)c2ccc(C)cc2)nc1 | inconclusive: 20 µM [inhibitor, single point] |
| O=C(Cc1ccccc1)NCc1ccc(-n2cccc2)cc1 | inactive |
| CSc1cccc(NC(=O)c2[nH]c(C)c(C(C)=O)c2C)c1 | inconclusive: 178 µM [inhibitor, partial curve, poor fit] |
| CC(C)(C)c1ccc(-c2nc(C#N)c(NCc3cccnc3)o2)cc1 | inactive |
| CSc1nsc(SC)c1NC(=O)N1CCCC1 | inconclusive: 89.1 µM [inhibitor, single point] |
| CCSc1nnc(-c2ccncc2)o1 | inactive |

| Structure (SMILES) | Potency |
| --- | --- |
| COc1ccc(OCC(O)CNCCOc2ccccc2OC)c(C(C)(C)C)c1 (stereo not given) | inconclusive: 100 µM [inhibitor, single point] |
| CC(=O)c1cc2c(cc1NC(=O)CCc1c(C)nc3ncnn3c1C)OCO2 | inconclusive: 14.1 µM [inhibitor, single point] |
| O=c1[nH]c2ccc(F)cc2[nH]c1=O | inconclusive: 100 µM [inhibitor, single point] |
| CCc1ccc(NC(=O)CCc2ccc(C)o2)cc1 | inconclusive: 100 µM [inhibitor, single point] |
| O=[N+]([O-])c1ccc(/C=N/Nc2ccnc3cc(Cl)ccc23)o1 | inconclusive: 15.8 µM [inhibitor, partial curve, poor fit] |
| O=C(NC1CCCC1)C1CCN(C(=O)c2cccc(Cl)c2)CC1 | inconclusive: 15.8 µM [inhibitor, single point] |
| Cc1oc(/N=C/c2ccccc2)c(C#N)c1C | inconclusive: 20 µM [inhibitor, single point] |
| COc1ccc(OCCN(C)CC(=O)Nc2c(C)cccc2C)cc1 | inactive |
| O=C(C1=C[C@H](C2CCCCC2)C[C@H](OCCCCO)O1)N1CCN(Cc2ccccc2)CC1 | inactive |
| c1coc(-c2ccnc3nc(-n4cccc4)nn23)c1 | inconclusive: 158 µM [inhibitor, partial curve] |
| O=C(OCc1nc(-c2ccccc2)oc1COC(=O)c1ccco1)c1ccco1 | inactive |
| O=C(Nc1ccc(S(=O)(=O)Nc2ncccn2)cc1)c1cccc(S(=O)(=O)N2CCOCC2)c1 | inconclusive: 224 µM [inhibitor, partial curve, poor fit] |
| C=CCn1c(=O)c2ccccc2n2c(SCC(=O)N(C)C)nnc12 | inconclusive: 20 µM [inhibitor, single point] |
| Nc1c(C(O)(C(F)(F)F)C(F)(F)F)ccc2ccccc12 | inactive |
| Cc1noc(C)c1CC(=O)Nc1ccc2c(c1)OCO2 | inconclusive: 100 µM [inhibitor, single point] |
| CC1CC1C(=O)OCC(=O)Nc1cccc([N+](=O)[O-])c1 (stereo not given) | inconclusive: 22.4 µM [inhibitor, single point] |
| COc1cccc(CNC(=O)C23CN(Cc4ccccc4)CC2C(c2ccc([N+](=O)[O-])cc2)=NO3)c1 (stereo not given) | inconclusive: 794 µM [inhibitor, single point] |
| CCCOc1ccc(Cn2c(=O)oc3ccc(C)cc32)cc1OC | inactive |
| CC(/C=C/c1ccccc1F)=N\NC(=O)c1cccc(F)c1 | inconclusive: 100 µM [inhibitor, partial curve] |
| O=C(CCCOc1ccc(Cl)cc1Cl)Nc1ccc(O)cc1C(=O)O | inconclusive: 79.4 µM [inhibitor, partial curve, poor fit] |
| O=C(NCc1ccco1)C(=S)N1CCCC1 | inconclusive: 89.1 µM [inhibitor, single point] |
| Cc1ccc([C@H]2C(C(=O)O)=CC[C@@H](c3ccc(Cl)cc3)N2S(=O)(=O)c2ccc(C)cc2)cc1 | inconclusive: 70.8 µM [inhibitor, single point] |

13 compounds from above, ordered by length of the SMILES, descending.

| Structure (SMILES) | Potency |
| --- | --- |
| O=C(Nc1ccc(S(=O)(=O)Nc2ncccn2)cc1)c1cccc(S(=O)(=O)N2CCOCC2)c1 | inconclusive: 224 µM [inhibitor, partial curve, poor fit] |
| O=C(C1=C[C@H](C2CCCCC2)C[C@H](OCCCCO)O1)N1CCN(Cc2ccccc2)CC1 | inactive |
| CC(=O)c1cc2c(cc1NC(=O)CCc1c(C)nc3ncnn3c1C)OCO2 | inconclusive: 14.1 µM [inhibitor, single point] |
| O=[N+]([O-])c1ccc(/C=N/Nc2ccnc3cc(Cl)ccc23)o1 | inconclusive: 15.8 µM [inhibitor, partial curve, poor fit] |
| COc1ccc(OCC(O)CNCCOc2ccccc2OC)c(C(C)(C)C)c1 (stereo not given) | inconclusive: 100 µM [inhibitor, single point] |
| O=C(CCCOc1ccc(Cl)cc1Cl)Nc1ccc(O)cc1C(=O)O | inconclusive: 79.4 µM [inhibitor, partial curve, poor fit] |
| Nc1c(C(O)(C(F)(F)F)C(F)(F)F)ccc2ccccc12 | inactive |
| COc1ccc(OCCN(C)CC(=O)Nc2c(C)cccc2C)cc1 | inactive |
| CCCOc1ccc(Cn2c(=O)oc3ccc(C)cc32)cc1OC | inactive |
| c1coc(-c2ccnc3nc(-n4cccc4)nn23)c1 | inconclusive: 158 µM [inhibitor, partial curve] |
| CCc1ccc(NC(=O)CCc2ccc(C)o2)cc1 | inconclusive: 100 µM [inhibitor, single point] |
| O=c1[nH]c2ccc(F)cc2[nH]c1=O | inconclusive: 100 µM [inhibitor, single point] |
| O=C(NCc1ccco1)C(=S)N1CCCC1 | inconclusive: 89.1 µM [inhibitor, single point] |
